Record: PubChem BioAssay AID652272 (Drosophila RNAi Screening Center, 2013)
In all, the deposit lists about 21,000 reagents; this is a random part of those with a known target gene and a result. In the full data, 503 (2.4%) got an active call. 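Raw plate light values, not normalised; calls rest on replicate z-scores that were not deposited; hits include reporter decreases as well as increases.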 Reagents against one gene are numbered here. Not given: the amount of reagent, the time to read-out.

- Aim: 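Finding fly genes that regulate Hedgehog signal transduction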 (primary screen)
- Cell system: Drosophila clone 8 (Cl8) cells
- Knock-down reagent: long dsRNA against Drosophila genes
- Measurement: 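Firefly light from a Hedgehog-responsive ptc promoter reporter and Renilla reference light, both read on a plate reader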
- Scale: firefly Hh reporter signal: higher = more ptc reporter light; Renilla reference signal: higher = more Renilla control light
- Rule for the call: 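Hit when the z-score averaged over two replicates is under -2 or over +3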
- Calls: active = hit: reporter lowered or raised; inactive = not a hit

no.	target gene	reagent	firefly Hh reporter signal, replicate 1	firefly Hh reporter signal, replicate 2	firefly Hh reporter signal, replicate 3	Renilla reference signal, replicate 1	Renilla reference signal, replicate 2	activity call
1	Ent2	1	87732	85616		3170	2480	inactive
2	CG3009	1	1.26e5	83014		2651	1779	inactive
3	Hsp26	1	1.45e5	65341		5296	2601	inactive
4	Pgcl	1	93168	3.25e5		2144	12352	inactive
5	CG33337	1	41513	6.12e5	2.21e5	11249	5313	inactive
6	ATP6AP2	1	80892	1.13e5		1284	3304	inactive
7	Orc5	1	97009	36825		2761	3639	inactive
8	mdlc	1	67380	67900		1893	2641	inactive
9	Grl43a	1	82629	38549		2246	3661	inactive
10	fend	1	5.58e5	1.32e5		29666	2552	inactive
11	fend	2	1.07e5	4.59e5		3504	15621	inactive
12	MetRS-m	1	86951	67975		3576	2729	inactive
13	MetRS-m	2	50967	91876		792	2013	inactive
14	CG9920	1	84697	88944		2064	2080	inactive
15	Cap-H2	1	85426	79699		3996	3328	inactive
16	CG13069	1	1.16e5			6659	4186	inactive
17	lectin-21Cb	1	89604	91463		2280	2144	inactive
18	aln	1	75530	48357		2587	3580	inactive
19	IPIP	1	1.40e5	1.27e5		6284	5592	inactive
20	CG14247	1	1.26e5	1.11e5		4560	3776	inactive
21	CG15263	1	1.58e5	90586		3973	7188	inactive
22	Klp98A	1	1.63e5	1.45e5		3203	3456	inactive
23	gro	1	1.02e5	96020		2779	2546	inactive

In a second layout: 2 of the entries above.
{"target gene": "CG13069", "reagent": 1, "firefly Hh reporter signal, replicate 1": 1.16e5, "Renilla reference signal, replicate 1": 6659, "Renilla reference signal, replicate 2": 4186, "activity call": "inactive"}
{"target gene": "lectin-21Cb", "reagent": 1, "firefly Hh reporter signal, replicate 1": 89604, "firefly Hh reporter signal, replicate 2": 91463, "Renilla reference signal, replicate 1": 2280, "Renilla reference signal, replicate 2": 2144, "activity call": "inactive"}
